Results published in patent publication US20230211023A1 (Erasmus University Medical Center Rotterdam, priority 2020, published 2023).
Where a sequence shows no end group, the ends are not given.

Assay: general procedure: Fmoc solid-phase peptide synthesis; 2-chlorotrityl chloride; HATU/DIPEA
Conditions: whole synthesis

## VSGWRLFKKIS
  isolated yield: 16.8%
